Source: the supplement of paper PMC12819154, “High-throughput peptide-centric local stability assay extends protein–ligand identification to membrane proteins, tissues and bacteria” (Nature Structural & Molecular Biology, 2025)
Some of the results follow. Most entries show no effect beyond the scatter of the controls.

Protein sequences, listed by entry. Tags and fused reporters are not part of them. Lines headed by an entry give the natural chain unless they say otherwise; changes in a name come on top.
UniProt Q07955, whole entry: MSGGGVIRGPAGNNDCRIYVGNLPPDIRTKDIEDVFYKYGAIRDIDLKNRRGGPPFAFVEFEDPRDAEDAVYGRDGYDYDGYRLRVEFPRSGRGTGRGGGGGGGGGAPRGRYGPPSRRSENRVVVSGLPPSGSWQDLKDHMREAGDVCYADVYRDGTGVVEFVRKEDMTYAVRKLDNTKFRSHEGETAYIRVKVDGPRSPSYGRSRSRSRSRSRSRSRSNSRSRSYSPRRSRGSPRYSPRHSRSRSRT
UniProt Q00587: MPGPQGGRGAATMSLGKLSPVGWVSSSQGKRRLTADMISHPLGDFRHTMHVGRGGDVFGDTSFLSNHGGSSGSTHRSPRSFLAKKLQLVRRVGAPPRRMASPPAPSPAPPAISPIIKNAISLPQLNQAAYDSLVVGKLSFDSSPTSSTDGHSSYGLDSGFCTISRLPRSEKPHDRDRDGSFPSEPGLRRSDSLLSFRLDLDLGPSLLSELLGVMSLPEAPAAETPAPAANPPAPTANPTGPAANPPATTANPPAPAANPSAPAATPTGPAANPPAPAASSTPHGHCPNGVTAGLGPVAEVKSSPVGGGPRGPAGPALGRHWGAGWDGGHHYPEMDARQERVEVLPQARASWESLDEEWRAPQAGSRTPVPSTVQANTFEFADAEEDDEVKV
UniProt Q04724: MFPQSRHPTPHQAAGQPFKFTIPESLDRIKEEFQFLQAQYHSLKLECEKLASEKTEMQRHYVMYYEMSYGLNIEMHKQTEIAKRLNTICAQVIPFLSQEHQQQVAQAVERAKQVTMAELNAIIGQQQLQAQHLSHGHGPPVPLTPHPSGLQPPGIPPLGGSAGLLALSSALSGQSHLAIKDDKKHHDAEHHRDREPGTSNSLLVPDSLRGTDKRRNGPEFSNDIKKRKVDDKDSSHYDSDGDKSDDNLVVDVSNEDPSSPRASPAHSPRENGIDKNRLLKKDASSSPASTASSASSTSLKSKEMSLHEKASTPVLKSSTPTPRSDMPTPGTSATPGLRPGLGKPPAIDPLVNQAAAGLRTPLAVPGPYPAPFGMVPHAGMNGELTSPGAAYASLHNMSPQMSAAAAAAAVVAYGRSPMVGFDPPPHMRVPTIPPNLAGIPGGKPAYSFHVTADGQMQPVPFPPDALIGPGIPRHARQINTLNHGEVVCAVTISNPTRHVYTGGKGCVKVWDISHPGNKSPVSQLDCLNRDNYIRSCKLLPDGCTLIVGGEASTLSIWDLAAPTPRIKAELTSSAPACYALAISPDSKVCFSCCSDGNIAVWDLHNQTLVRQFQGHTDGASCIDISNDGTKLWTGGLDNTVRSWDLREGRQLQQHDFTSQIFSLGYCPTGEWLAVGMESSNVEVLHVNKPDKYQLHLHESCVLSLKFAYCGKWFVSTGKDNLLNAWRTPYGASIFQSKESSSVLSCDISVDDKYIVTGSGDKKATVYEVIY
UniProt Q0VDF9: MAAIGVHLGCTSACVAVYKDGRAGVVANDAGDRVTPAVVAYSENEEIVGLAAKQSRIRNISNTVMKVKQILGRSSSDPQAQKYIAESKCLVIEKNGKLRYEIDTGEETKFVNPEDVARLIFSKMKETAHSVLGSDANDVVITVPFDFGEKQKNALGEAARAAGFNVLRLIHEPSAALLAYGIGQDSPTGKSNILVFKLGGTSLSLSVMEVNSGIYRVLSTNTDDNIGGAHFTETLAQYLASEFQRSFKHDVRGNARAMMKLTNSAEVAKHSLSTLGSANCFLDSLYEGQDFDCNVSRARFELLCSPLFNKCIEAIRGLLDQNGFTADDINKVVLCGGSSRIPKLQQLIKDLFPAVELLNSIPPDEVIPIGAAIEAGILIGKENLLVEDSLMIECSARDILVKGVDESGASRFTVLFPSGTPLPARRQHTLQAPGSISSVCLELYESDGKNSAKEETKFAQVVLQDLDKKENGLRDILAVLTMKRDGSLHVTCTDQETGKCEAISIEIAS
UniProt Q07912: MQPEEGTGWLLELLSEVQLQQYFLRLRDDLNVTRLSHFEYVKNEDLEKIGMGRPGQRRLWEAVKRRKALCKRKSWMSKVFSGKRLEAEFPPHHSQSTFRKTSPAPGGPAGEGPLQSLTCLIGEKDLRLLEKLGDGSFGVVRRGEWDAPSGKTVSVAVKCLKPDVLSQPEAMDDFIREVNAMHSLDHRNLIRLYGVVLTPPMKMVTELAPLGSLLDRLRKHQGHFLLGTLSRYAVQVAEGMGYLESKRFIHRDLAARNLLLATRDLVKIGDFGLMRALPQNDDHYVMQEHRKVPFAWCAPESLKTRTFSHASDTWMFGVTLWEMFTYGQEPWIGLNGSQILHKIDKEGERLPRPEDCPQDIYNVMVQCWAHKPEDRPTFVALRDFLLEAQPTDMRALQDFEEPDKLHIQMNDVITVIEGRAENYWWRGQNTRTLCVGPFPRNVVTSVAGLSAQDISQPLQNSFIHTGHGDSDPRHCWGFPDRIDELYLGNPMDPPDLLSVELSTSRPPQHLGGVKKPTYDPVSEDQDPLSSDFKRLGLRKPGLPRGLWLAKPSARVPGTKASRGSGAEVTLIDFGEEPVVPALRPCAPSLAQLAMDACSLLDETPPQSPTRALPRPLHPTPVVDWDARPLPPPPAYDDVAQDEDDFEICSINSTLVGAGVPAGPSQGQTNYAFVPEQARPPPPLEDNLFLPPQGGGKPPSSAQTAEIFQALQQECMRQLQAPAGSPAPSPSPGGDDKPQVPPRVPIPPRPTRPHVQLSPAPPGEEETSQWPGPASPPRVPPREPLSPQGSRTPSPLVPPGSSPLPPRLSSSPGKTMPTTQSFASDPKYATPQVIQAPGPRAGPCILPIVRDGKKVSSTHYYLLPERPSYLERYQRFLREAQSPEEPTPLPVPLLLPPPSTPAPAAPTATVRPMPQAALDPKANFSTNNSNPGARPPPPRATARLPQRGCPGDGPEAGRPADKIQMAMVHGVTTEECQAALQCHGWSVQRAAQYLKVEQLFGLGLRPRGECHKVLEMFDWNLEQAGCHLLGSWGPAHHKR
UniProt Q01081: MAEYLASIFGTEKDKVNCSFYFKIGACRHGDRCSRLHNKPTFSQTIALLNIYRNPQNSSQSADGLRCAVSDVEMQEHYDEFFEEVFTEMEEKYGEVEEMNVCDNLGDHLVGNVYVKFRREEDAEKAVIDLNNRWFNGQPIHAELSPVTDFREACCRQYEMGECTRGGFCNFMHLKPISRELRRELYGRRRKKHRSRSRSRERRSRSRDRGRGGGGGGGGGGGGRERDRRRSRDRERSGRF
UniProt Q07820, whole entry: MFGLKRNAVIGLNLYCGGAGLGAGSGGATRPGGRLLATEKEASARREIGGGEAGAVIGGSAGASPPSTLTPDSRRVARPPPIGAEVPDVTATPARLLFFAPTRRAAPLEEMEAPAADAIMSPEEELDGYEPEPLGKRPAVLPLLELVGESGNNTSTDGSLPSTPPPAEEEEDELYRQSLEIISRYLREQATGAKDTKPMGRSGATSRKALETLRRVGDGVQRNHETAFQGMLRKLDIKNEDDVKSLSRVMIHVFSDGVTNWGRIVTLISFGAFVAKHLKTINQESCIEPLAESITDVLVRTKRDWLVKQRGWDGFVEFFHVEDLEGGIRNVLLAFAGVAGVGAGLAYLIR
UniProt Q05193: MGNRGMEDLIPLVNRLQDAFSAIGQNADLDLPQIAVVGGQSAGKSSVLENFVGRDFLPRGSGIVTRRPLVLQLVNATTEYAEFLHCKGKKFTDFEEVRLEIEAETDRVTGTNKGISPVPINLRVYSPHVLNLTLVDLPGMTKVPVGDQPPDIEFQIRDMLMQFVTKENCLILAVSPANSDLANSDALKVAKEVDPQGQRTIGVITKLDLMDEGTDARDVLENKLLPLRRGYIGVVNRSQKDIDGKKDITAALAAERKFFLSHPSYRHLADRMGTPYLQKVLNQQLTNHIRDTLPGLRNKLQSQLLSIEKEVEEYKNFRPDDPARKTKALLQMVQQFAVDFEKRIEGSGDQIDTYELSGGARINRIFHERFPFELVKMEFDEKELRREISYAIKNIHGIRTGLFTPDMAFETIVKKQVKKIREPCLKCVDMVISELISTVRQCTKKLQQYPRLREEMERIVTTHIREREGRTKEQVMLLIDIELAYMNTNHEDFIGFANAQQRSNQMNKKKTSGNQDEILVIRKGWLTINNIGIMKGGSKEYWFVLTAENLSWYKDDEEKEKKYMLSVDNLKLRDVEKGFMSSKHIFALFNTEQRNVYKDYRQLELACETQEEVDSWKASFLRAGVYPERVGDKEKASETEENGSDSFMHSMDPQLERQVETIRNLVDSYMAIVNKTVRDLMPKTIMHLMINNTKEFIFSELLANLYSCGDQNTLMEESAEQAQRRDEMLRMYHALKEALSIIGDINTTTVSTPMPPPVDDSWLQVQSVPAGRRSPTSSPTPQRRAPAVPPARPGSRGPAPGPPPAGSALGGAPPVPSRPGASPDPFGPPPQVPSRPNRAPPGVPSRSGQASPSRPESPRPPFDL
UniProt Q13118: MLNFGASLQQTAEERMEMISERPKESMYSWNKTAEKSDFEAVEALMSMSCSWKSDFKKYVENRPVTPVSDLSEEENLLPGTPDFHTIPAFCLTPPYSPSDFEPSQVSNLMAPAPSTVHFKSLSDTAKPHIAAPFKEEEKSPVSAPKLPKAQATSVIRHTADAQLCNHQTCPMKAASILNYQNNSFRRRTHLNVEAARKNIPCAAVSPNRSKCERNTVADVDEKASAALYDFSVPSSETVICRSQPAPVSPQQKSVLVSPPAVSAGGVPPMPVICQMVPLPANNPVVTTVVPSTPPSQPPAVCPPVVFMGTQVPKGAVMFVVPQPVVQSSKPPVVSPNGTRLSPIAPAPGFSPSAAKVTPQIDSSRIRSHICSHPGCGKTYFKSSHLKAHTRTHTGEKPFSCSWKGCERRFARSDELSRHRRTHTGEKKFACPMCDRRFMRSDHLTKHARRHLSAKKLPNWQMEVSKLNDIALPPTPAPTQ
UniProt Q08ER8: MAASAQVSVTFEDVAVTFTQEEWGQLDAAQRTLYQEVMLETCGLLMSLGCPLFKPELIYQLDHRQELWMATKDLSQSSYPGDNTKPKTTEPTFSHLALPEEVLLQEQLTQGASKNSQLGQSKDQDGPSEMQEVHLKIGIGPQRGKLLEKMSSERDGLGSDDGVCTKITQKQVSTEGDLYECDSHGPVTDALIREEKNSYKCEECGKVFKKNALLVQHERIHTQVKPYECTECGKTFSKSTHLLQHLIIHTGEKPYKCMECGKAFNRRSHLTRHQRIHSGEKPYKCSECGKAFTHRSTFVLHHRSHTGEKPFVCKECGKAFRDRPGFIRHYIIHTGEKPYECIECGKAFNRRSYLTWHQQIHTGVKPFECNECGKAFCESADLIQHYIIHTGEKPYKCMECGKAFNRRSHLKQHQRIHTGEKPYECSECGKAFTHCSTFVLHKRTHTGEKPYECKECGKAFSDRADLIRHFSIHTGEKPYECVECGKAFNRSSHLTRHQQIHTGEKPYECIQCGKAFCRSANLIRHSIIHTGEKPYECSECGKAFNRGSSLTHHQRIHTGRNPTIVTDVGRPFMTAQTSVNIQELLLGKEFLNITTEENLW

Compound: CN[C@@H]1C[C@H]2O[C@@](C)([C@@H]1OC)n1c3ccccc3c3c4c(c5c6ccccc6n2c5c31)C(=O)NC4 [staurosporine]
Assay: log2 fold change of tryptic peptide abundance, ligand vs vehicle (limited proteolysis) (log2 ratio); higher = more trypsin-susceptible (destabilized)
Details: ligand concentration: 20 uM; sample: K562 cleared lysate; digestion: 4 min, 22 C (HT-PELSA RT4min, Orbitrap Astral)

Target	log2 fold change
UniProt Q07955 (peptide sequence: GRYGPPSR, peptide start residue: 110)	0.43
CDC42EP1 (peptide sequence: SDSLLSFR, peptide start residue: 190) (UniProt Q00587)	0.342
TLE1 (peptide sequence: SPMVGFDPPPHMR, peptide start residue: 416) (UniProt Q04724)	-0.0618
HSPA14 (peptide sequence: SFKHDVR, peptide start residue: 246) (UniProt Q0VDF9)	0.496
UniProt Q07912 (peptide sequence: VSSTHYYLLPERPSYLER, peptide start residue: 854)	-0.457
U2AF1 (peptide sequence: EACCRQYEMGECTR, peptide start residue: 152) (UniProt Q01081)	-0.468
MCL1 (peptide sequence: LLFFAPTR, peptide start residue: 96) (UniProt Q07820)	0.0909
OTUD4 (peptide sequence: NVEYEIWLK, peptide start residue: 258) (UniProt Q01804)	-0.16
DNM1 (peptide sequence: CVDMVISELISTVR, peptide start residue: 427) (UniProt Q05193)	-0.81
UniProt Q13118 (peptide sequence: SHICSHPGCGK, peptide start residue: 368)	-0.509
UniProt Q08ER8 (peptide sequence: DGLGSDDGVCTK, peptide start residue: 155)	0.512

Reprinted from the listing for reference:
Target	log2 fold change
UniProt Q07912 (peptide sequence: VSSTHYYLLPERPSYLER, peptide start residue: 854)	-0.457
U2AF1 (peptide sequence: EACCRQYEMGECTR, peptide start residue: 152) (UniProt Q01081)	-0.468
